# Literature values as cited in US20240376435A1, “KIDNEY ORGANOID AND METHOD FOR PRODUCING SAME” (OTSUKA PHARMACEUTICAL CO., LTD., priority 2021, published 2024).
# For at least one compound, name, drawing or mass did not settle the structure.
# Tested on: proximal tubular cells of mice
# Details: cited from earlier work
smiles,measurement,value
CC(C)OC(=O)C(C)(C)Oc1ccc(C(=O)c2ccc(Cl)cc2)cc1 [fenofibrate],expression of proximal tubular genes,increases
